These are yes or no findings as the source states them, for the method shown. Some binding calls cover weakened binding; strength is not graded here.
Molecular target: AliB (residues 26–652), oligopeptide-binding lipoprotein of the Ami system, without the lipobox segment (Streptococcus pneumoniae) (UniProt P0A4G0)
Test: crystal structure; AliB incubated with an excess of synthetic peptide 2, 3 or 4 and co-crystallised; 0.1 M sodium acetate, 8% 2-propanol, 21% PEG4000; 2.29, 1.66 and 1.49 Å; closed conformation; both purified

Amino acid sequences for entries named in this document (tags omitted). Residues count along the entry.
UniProt P0A4G0, residues 26-652: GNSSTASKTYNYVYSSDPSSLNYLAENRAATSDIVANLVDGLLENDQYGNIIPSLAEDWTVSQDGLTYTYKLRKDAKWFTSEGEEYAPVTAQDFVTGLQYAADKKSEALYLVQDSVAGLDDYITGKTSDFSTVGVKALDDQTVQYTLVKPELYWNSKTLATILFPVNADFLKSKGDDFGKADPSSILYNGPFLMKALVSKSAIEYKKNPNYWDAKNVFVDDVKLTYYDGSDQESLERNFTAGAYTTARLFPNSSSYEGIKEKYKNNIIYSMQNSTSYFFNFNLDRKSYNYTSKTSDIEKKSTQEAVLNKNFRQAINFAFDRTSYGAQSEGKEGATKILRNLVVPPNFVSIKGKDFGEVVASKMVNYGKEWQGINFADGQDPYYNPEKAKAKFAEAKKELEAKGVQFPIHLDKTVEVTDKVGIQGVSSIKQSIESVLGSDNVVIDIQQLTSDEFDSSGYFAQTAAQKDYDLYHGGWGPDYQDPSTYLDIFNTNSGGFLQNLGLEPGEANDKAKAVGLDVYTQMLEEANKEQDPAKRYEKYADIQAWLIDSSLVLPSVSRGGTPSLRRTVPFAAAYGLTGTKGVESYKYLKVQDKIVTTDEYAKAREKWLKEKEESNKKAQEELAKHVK

B1: Peptide 2 (…) (peptide)
peptide: AIQSEKARKHN
How did the binding turn out when B1 was run?
Its binding is “binds”.

— article PMC11192437, “Molecular and structural basis of oligopeptide recognition by the Ami transporter system in pneumococci” (PLOS Pathogens, 2024)
